Data taken from patent US12428408B2, “Fused heterocyclic mescaline derivatives” (Enveric Biosciences Canada Inc., priority 2022, dated 2025).

Sequences of proteins named here, by UniProt entry; tags and fusion partners are left off. A change or cut given only in a name is not applied to a line headed by its entry.
UniProt P28565: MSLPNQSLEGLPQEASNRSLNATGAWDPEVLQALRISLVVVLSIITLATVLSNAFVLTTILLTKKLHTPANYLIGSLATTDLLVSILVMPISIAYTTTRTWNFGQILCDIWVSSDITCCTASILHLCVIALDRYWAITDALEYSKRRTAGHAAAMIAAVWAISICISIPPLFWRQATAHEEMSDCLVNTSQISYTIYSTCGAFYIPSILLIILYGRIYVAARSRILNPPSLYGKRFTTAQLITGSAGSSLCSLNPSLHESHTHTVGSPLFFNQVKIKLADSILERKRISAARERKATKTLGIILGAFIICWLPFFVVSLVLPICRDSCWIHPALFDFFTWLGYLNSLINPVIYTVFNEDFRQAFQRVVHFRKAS

Molecular target: T1, 5-HT1D (r) (Rattus norvegicus, UniProt P28565)
T1 construct: host or cells: CHO cells
Assay: Competition assay to measure binding affinity at 5-HT1D receptor
Details: test ligand 10 μM; [3H]serotonin 1 nM

O=c1n(CCCN2CCN(c3cccc(Cl)c3)CC2)nc2ccccn12 [Trazodone, reference compound] was tested, and the “HT1D, percent of control-specific binding” value was 92%.
